Assay results published in PubChem BioAssay AID434947 (Broad Institute, 2010).
In all, about 2,200 compounds went through this assay and about 15 (0.7%) were called active.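 The calls were made as follows: active = fitted half-maximal concentration for loss of luminescence signal no more than a set limit of log units above the top tested concentration; inconclusive = flat fit with 30 to 70% signal loss, or invalid fit; inactive = half-maximal concentration above that set limit.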 The list shows a part of the results.

Experiment: ADP-Glo luciferase signal interference – biochemical, luminescence, cell-free, homogeneous, artefact control for GSK3beta inhibitor project, dose response (AID 434947);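 also: kinase-free counter screen of ADP-Glo detection reagents for GSK3beta hits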
Conditions: Cell-free ADP-Glo reagents, 5 uM ADP
In the case of `Cc1cccc(C(=O)NCC(c2ccco2)N2CCc3ccccc32)c1` (stereo not given), the EC50 is reported as inactive: > 30 µM.
In the case of `c1ccc2c(Nc3nc(-c4ccncc4)nc4ccccc34)cccc2c1`, the EC50 is reported as inactive: > 30 µM.
With `COCCn1c(SCC(=O)NCc2ccccc2)nc2ccccc21` the EC50 was inactive: > 30 µM.
In the case of `N#Cc1c(-c2ccccc2)nc(-c2ccccc2)[nH]c1=O`, the EC50 is reported as inactive: > 30 µM.
For `Cn1c(=O)[nH]c(=O)c2c1nc(Br)n2Cc1ccccc1Cl`, the EC50 was inactive: > 30 µM.
In the case of `O=C1NC(c2cccs2)Nc2sc3c(c21)CCCC3` (stereo not given), the EC50 is reported as inactive: > 30 µM.
For `CC(C)(C)Sc1ccc(/C=N/O)cc1[N+](=O)[O-]`, the EC50 was inactive: > 30 µM.
In the case of `COc1ccc(OC)c(C(=O)c2coc3ccc(O)cc23)c1`, the EC50 is reported as inactive: > 30 µM.
With `Cc1ccc2nc(-c3ccc4c(c3)NC(=O)CO4)cn2c1` the EC50 was inactive: > 30 µM.
In the case of `Cc1ccc(C(=O)O/N=C(\N)c2ccccn2)c(C)c1`, the EC50 is reported as active: 17.6 µM.
With `O=C(Nc1sccc1C(=O)N1CCOCC1)c1cccnc1` the EC50 was inactive: > 30 µM.
With `CCOC(=O)CNC(=O)CSc1ccc2nnc(-c3cccnc3)n2n1` the EC50 was inactive: > 30 µM.
In the case of `COC(=O)c1nnn(-c2nonc2N)c1CSCCO`, the EC50 is reported as inactive: > 30 µM.
For `O=S(=O)(Nc1cccnc1)c1ccc(C2CCCCC2)cc1`, the EC50 was inactive: > 30 µM.
In the case of `Cc1cccc(/C=C2/Sc3ccc(C(=O)NCCN4CCCC4)cc3NC2=O)c1`, the EC50 is reported as inactive: > 30 µM.
For `O=C(Nc1nnc(-c2cc(Cl)ccc2Cl)o1)c1ccco1`, the EC50 was inactive: > 30 µM.
In the case of `O=C(/C=C/c1ccc2ccccc2c1)c1ccoc1`, the EC50 is reported as inactive: > 30 µM.
With `CCn1c(SCC(=O)Nc2ccc(C(C)=O)cc2)nnc1C1CC1` the EC50 was inactive: > 30 µM.
With `Cc1cc(C)n2nc(C(=O)OCC(=O)NC(=O)c3ccccc3)nc2n1` the EC50 was inactive: > 30 µM.
With `COc1ccc(Nc2nc(-c3ccccc3)c(C(=O)Nc3cccnc3)s2)cc1` the EC50 was inactive: > 30 µM.
In the case of `COc1cccc(C(=O)Nc2ccc(C(=O)NCC(C)C)cc2)c1`, the EC50 is reported as inactive: > 30 µM.
For `CCOc1ccccc1NC(=O)CSc1nnc(C2CC2)n1CC`, the EC50 was inactive: > 30 µM.
In the case of `Cc1ccccc1-c1nnc(SCc2ccccc2F)o1`, the EC50 is reported as inactive: > 30 µM.
With `CC(=O)N1CCc2c(sc(NC(=O)Cc3ccccc3)c2C(N)=O)C1` the EC50 was inactive: > 30 µM.
In the case of `CC(=O)Oc1ccc2occ(C(=O)c3cccs3)c2c1`, the EC50 is reported as inactive: > 30 µM.
In the case of `Cc1ccc(C(=O)c2coc3ccc(O)cc23)cc1`, the EC50 is reported as inactive: > 30 µM.
For `Cc1ccc(-c2nn(-c3ccccc3)cc2/C=N/NS(=O)(=O)c2ccccc2)cc1`, the EC50 was inactive: > 30 µM.
With `CCCN(C(=O)CCNC(=O)Cn1cnc2ccccc2c1=O)c1cccc(Cl)c1` the EC50 was inactive: > 30 µM.
In the case of `CSCCC(C(=O)NCc1cccs1)N1C(=O)c2ccccc2C1=O` (stereo not given), the EC50 is reported as inactive: > 30 µM.
With `NS(=O)(=O)c1ccc(NC(=O)CN2C(=O)CCC2=O)cc1` the EC50 was inactive: > 30 µM.
For `COC(=O)CSc1ccc2nnc(-c3ccc(F)cc3)n2n1`, the EC50 was inactive: > 30 µM.
In the case of `COc1ccc(-c2cc(C(=O)N3CCN(C(=O)c4ccco4)CC3)[nH]n2)cc1`, the EC50 is reported as inactive: > 30 µM.
For `CCCCn1nc(NC(=O)c2cccs2)c2cc3cc(OC)ccc3nc21`, the EC50 was inactive: > 30 µM.
For `Fc1cccc(/C=N/Nc2ncnc3nc[nH]c23)c1`, the EC50 was inactive: > 30 µM.
For `Nc1nc(Nc2ccccc2)nc(NCc2ccccc2)c1[N+](=O)[O-]`, the EC50 was inactive: > 30 µM.
With `O=C(N/N=C/c1ccc(Br)s1)c1cccnc1` the EC50 was inactive: > 30 µM.
In the case of `CC1(C)CC(=O)C=C(Nc2ccccc2O)C1`, the EC50 is reported as inactive: > 30 µM.
In the case of `COc1cccc2cc(C(=O)NCc3ccc(C)cc3)c(=N)oc12`, the EC50 is reported as inactive: > 30 µM.
In the case of `Nc1ncnc(N2CCc3ccccc32)c1[N+](=O)[O-]`, the EC50 is reported as inactive: > 30 µM.
In the case of `COc1cccc2cc(CC(=O)c3ccc(C)cc3C)c(=O)oc12`, the EC50 is reported as inactive: > 30 µM.
For `Cc1cccc(Nc2nc(NCCCN3CCOCC3)nc(N)c2[N+](=O)[O-])c1`, the EC50 was inactive: > 30 µM.
For `NS(=O)(=O)c1ccc(CCNC(=O)CSc2nc3ccsc3c(=O)n2C2CC2)cc1`, the EC50 was inactive: > 30 µM.
In the case of `Nc1nonc1-n1nnc(C(=O)N/N=C/c2ccccc2)c1CN1CCc2ccccc21`, the EC50 is reported as inactive: > 30 µM.
For `N#CC(C#N)=Cc1cc2ccccc2nc1N1CCOCC1`, the EC50 was inactive: > 30 µM.
In the case of `O=C(O)c1ccc(-c2ccc(/C=N/Nc3ccc([N+](=O)[O-])cc3)o2)cc1`, the EC50 is reported as inactive: > 30 µM.
In the case of `Cc1cccc(Nc2nc(N)c([N+](=O)[O-])c(NCc3ccccc3)n2)c1`, the EC50 is reported as inactive: > 30 µM.
With `COc1ccc2c(c1)/C(=N/N1C(=O)c3ccccc3C1=O)C(=O)N2` the EC50 was inactive: > 30 µM.
With `COc1ccc(-n2c(=O)c3c4c(sc3n3c(=S)[nH]nc23)CCC4)cc1` the EC50 was inactive: > 30 µM.
With `CCCN(CCC)Cc1c(C(=O)N/N=C/c2c[nH]c3ccccc23)nnn1-c1nonc1N` the EC50 was inactive: > 30 µM.
With `CC1=C(C(=O)Nc2ccccc2F)C(c2cccs2)C2=C(CCCC2=O)N1` (stereo not given) the EC50 was inactive: > 30 µM.
In the case of `CCc1cc(C(=O)c2ccc(OC)cc2)c(NC(=O)CN2CCN(C)CC2)s1`, the EC50 is reported as inactive: > 30 µM.
In the case of `COc1ccc(Nc2nc(NCc3ccco3)nc(N)c2[N+](=O)[O-])cc1`, the EC50 is reported as inactive: > 30 µM.
With `CCOC(=O)c1ccc2c(c1)n(CC)c(/C=C/N(C)c1ccccc1)[n+]2CC` the EC50 was inactive: > 35 µM.
For `COc1ccc2c(C)c(CC(=O)N3CCN(C(=O)C4COc5ccccc5O4)CC3)c(=O)oc2c1` (stereo not given), the EC50 was inactive: > 30 µM.
For `Cc1[nH]nc2c1[C@@H](c1ccccc1[N+](=O)[O-])C(C#N)=C(N)O2`, the EC50 was inactive: > 30 µM.
With `Cc1csc(SCC(=O)Nc2ccc(Cl)cn2)n1` the EC50 was inactive: > 30 µM.
With `O=C(CCl)Oc1ccc2occ(C(=O)c3cccs3)c2c1` the EC50 was inactive: > 30 µM.
With `CC(Cc1c[nH]c2ccccc12)NC(=O)OCCCl` (stereo not given) the EC50 was inactive: > 30 µM.
In the case of `C=CCN=C(NC#N)SC`, the EC50 is reported as inactive: > 30 µM.
For `COC(=O)c1ccccc1OCCOc1ccccc1C(=O)OC`, the EC50 was inactive: > 30 µM.
